Values from PubChem BioAssay AID504764 (Drosophila RNAi Screening Center, 2011).
Screen: 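Knock-downs that raise or lower a Notch target reporter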 (primary screen). Cells: Drosophila Kc167 cells. Reagents: long dsRNA against Drosophila genes. Time to read-out: about 5 days (4 days dsRNA, then 24 h after transfection). Challenge: transfection of constitutively active membrane-tethered Notch lacking the extracellular domain, read 24 h later. Measurement: 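Light from a Notch-responsive E(spl)m3 luciferase reporter under active Notch, with control-promoter and no-Notch reporter wells to normalise; raw counts from paired wells a and b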. Direction: induced reporter light, run 1, well a and induced reporter light, run 1, well b: higher = more light from the Notch target reporter with active Notch; control promoter light, run 1, well a and control promoter light, run 1, well b: higher = more light from the viral control promoter (cell number, transfection, viability); uninduced reporter light, run 1, well a: higher = more light from the Notch target reporter without active Notch. Hit rule: 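Hit if the duplicate-averaged log2 ratio of induced to control-promoter light gives a plate-wise z beyond ±2, or induced to uninduced beyond ±1.8; weak-control or discordant-duplicate wells dropped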. Meaning of the calls: active = modifier hit (raised or lowered Notch signal); inactive = not a hit.
The deposit covers about 22,000 reagents; below is a random part of those with a known target gene and a result. Of all reagents, 403 (1.9%) are marked active. 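Unnormalised raw counts per well; ratio z-scores behind the hit calls and whether each hit raises or lowers signal are not deposited.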 Reagents against one gene are numbered here. A plus sign joins genes that one reagent is predicted to hit. Reagent sequences are not shown. Not stated in the record: the amount of reagent.

target gene | reagent | induced reporter light, run 1, well a | induced reporter light, run 1, well b | control promoter light, run 1, well a | control promoter light, run 1, well b | uninduced reporter light, run 1, well a | Call
CG15170 (GeneID 35160) | 1 | 42510 | 40220 | 48965 | 81010 | 3270 | inactive
SecCl (GeneID 39949) | 1 | 2.10e5 | 2.08e5 | 1.87e5 | 2.13e5 | 6425 | inactive
CG12951 (GeneID 41110) | 1 | 68365 | 96860 | 93230 | 77595 | 5020 | inactive
CG2964 (GeneID 33475) | 1 | 1.41e5 | 1.20e5 | 1.37e5 | 1.22e5 | 10732 | inactive
zld (GeneID 32994) | 1 | 53770 | 66120 | 38960 | 57365 | 9140 | inactive
zld (GeneID 32994) | 2 | – | – | – | – | – | inactive
Xport-A + Xport-B | 1 | 1.46e5 | 1.61e5 | 1.91e5 | 2.39e5 | 13655 | inactive
CG34234 + Dh44-R2 | 1 | 79055 | 90705 | 77555 | 90400 | 7685 | inactive
CG14191 (GeneID 32893) | 1 | 98180 | 83630 | 1.07e5 | 1.34e5 | 12625 | inactive
Atx-1 (GeneID 31624) | 1 | 1.30e5 | 1.46e5 | 2.75e5 | 2.37e5 | 11050 | inactive
Sulf1 (GeneID 53437) | 1 | 2.07e5 | 2.02e5 | 1.67e5 | 1.68e5 | 18320 | inactive
Cog2 (GeneID 41870) | 1 | 2.05e5 | 2.28e5 | 2.10e5 | 2.12e5 | 19290 | inactive
Pdzd8 (GeneID 32157) | 1 | 1.49e5 | 1.37e5 | 2.62e5 | 2.22e5 | 9650 | inactive
CG6689 (GeneID 41345) | 1 | 99405 | 1.36e5 | 88865 | 62140 | 9455 | inactive
Fuca (GeneID 3772574) | 1 | 90630 | 73660 | 97705 | 74770 | 5125 | inactive
Obp50d (GeneID 246436) | 1 | 1.53e5 | 1.77e5 | 1.97e5 | 2.30e5 | 16960 | inactive
Isha (GeneID 37411) | 1 | 53350 | 55165 | 45965 | 41575 | 4435 | inactive
Miro (GeneID 42845) | 1 | 1.79e5 | 1.75e5 | 2.15e5 | 2.43e5 | 16085 | inactive
CG4972 (GeneID 34388) | 1 | 1.52e5 | 1.48e5 | 90995 | 1.03e5 | 19040 | inactive
CG11741 (GeneID 5740784) | 1 | 88980 | 89470 | 84555 | 64945 | 7000 | inactive
CG1671 (GeneID 36019) | 1 | 1.29e5 | 1.21e5 | 1.02e5 | 1.26e5 | 10430 | inactive
bt (GeneID 43814) | 1 | 1.57e5 | 1.77e5 | 2.18e5 | 2.16e5 | 14300 | inactive
bt (GeneID 43814) | 2 | 1.80e5 | 2.07e5 | 2.62e5 | 2.48e5 | 13935 | inactive
PPO3 (GeneID 44513) | 1 | 2.00e5 | 1.65e5 | 1.68e5 | 1.85e5 | 13945 | inactive
CG13601 (GeneID 42826) | 1 | 50 | 100 | 245 | 760 | 50 | inactive
CG32454 (GeneID 318037) | 1 | 1.25e5 | 1.14e5 | 83665 | 92475 | 8545 | inactive
ssx (GeneID 31086) | 1 | 1.03e5 | 1.57e5 | 1.32e5 | 1.22e5 | 15570 | inactive
CG13625 (GeneID 42931) | 1 | 1.73e5 | 1.60e5 | 1.82e5 | 2.08e5 | 10635 | inactive
kmr (GeneID 5740131) | 1 | 1.80e5 | 1.46e5 | 2.51e5 | 2.02e5 | 15780 | inactive
kmr (GeneID 5740131) | 2 | 1.83e5 | 1.71e5 | 1.93e5 | 1.85e5 | 16350 | inactive
kmr (GeneID 5740131) | 3 | 2.97e5 | 2.53e5 | 3.35e5 | 3.24e5 | 20510 | inactive
kmr (GeneID 5740131) | 4 | 1.01e5 | 92760 | 64230 | 53885 | 8185 | inactive
CG14632 (retired record) (GeneID 31035) | 1 | 1.25e5 | 1.07e5 | 2.25e5 | 1.81e5 | 8840 | inactive
Nlg4 (GeneID 42402) | 1 | 1.23e5 | 1.45e5 | 1.50e5 | 1.51e5 | 9510 | inactive
Nlg4 (GeneID 42402) | 2 | 1.77e5 | 1.61e5 | 1.93e5 | 2.27e5 | 12400 | inactive
Nlg4 (GeneID 42402) | 3 | 1.61e5 | 1.36e5 | 1.80e5 | 1.78e5 | 11160 | inactive
Nlg4 (GeneID 42402) | 4 | 11585 | 12570 | 11955 | 9880 | 2865 | inactive
Nlg4 (GeneID 42402) | 5 | – | – | – | – | – | active
Ugt317A1 (GeneID 37590) | 1 | 1.77e5 | 1.41e5 | 1.66e5 | 1.56e5 | 11965 | inactive
Swip-1 (GeneID 35158) | 1 | 2.85e5 | 2.01e5 | 1.79e5 | 1.75e5 | 17132 | inactive
Swip-1 (GeneID 35158) | 2 | 36600 | 34895 | 29295 | 43110 | 2145 | inactive
CNPYb (GeneID 40084) | 1 | 1.42e5 | 1.73e5 | 81280 | 87835 | 12235 | inactive

Next part; the last 9 above are carried over.
target gene | reagent | induced reporter light, run 1, well a | induced reporter light, run 1, well b | control promoter light, run 1, well a | control promoter light, run 1, well b | uninduced reporter light, run 1, well a | Call
Nlg4 (GeneID 42402) | 1 | 1.23e5 | 1.45e5 | 1.50e5 | 1.51e5 | 9510 | inactive
Nlg4 (GeneID 42402) | 2 | 1.77e5 | 1.61e5 | 1.93e5 | 2.27e5 | 12400 | inactive
Nlg4 (GeneID 42402) | 3 | 1.61e5 | 1.36e5 | 1.80e5 | 1.78e5 | 11160 | inactive
Nlg4 (GeneID 42402) | 4 | 11585 | 12570 | 11955 | 9880 | 2865 | inactive
Nlg4 (GeneID 42402) | 5 | – | – | – | – | – | active
Ugt317A1 (GeneID 37590) | 1 | 1.77e5 | 1.41e5 | 1.66e5 | 1.56e5 | 11965 | inactive
Swip-1 (GeneID 35158) | 1 | 2.85e5 | 2.01e5 | 1.79e5 | 1.75e5 | 17132 | inactive
Swip-1 (GeneID 35158) | 2 | 36600 | 34895 | 29295 | 43110 | 2145 | inactive
CNPYb (GeneID 40084) | 1 | 1.42e5 | 1.73e5 | 81280 | 87835 | 12235 | inactive
Cpr64Ab (GeneID 38509) | 1 | 1.28e5 | 98580 | 1.69e5 | 1.41e5 | 5540 | inactive
Nup35 (GeneID 32851) | 1 | 99230 | 86035 | 84490 | 52015 | 8380 | inactive
CG13123 (GeneID 34303) | 1 | 1.81e5 | 1.86e5 | 1.19e5 | 1.59e5 | 22785 | inactive
bocks (GeneID 41162) | 1 | 92115 | 1.16e5 | 84485 | 66120 | 7460 | inactive
bif (GeneID 32119) | 1 | 76340 | 64195 | 1.06e5 | 55670 | 4010 | inactive
bif (GeneID 32119) | 2 | 2.00e5 | 1.57e5 | 1.49e5 | 1.18e5 | 13260 | active
CG40005 (retired record) + cta | 1 | 83630 | 1.01e5 | 79725 | 87360 | 8565 | inactive
CG1635 (GeneID 43720) | 1 | 1.95e5 | 2.44e5 | 2.66e5 | 2.24e5 | 14840 | inactive
h-cup + Rbp | 1 | 2.54e5 | 2.32e5 | 2.06e5 | 2.14e5 | 18650 | inactive
CG11178 (GeneID 32315) | 1 | 1.69e5 | 1.71e5 | 2.50e5 | 2.07e5 | 13795 | inactive
CG32037 (GeneID 326183) | 1 | 1.80e5 | 2.17e5 | 2.42e5 | 2.12e5 | 11935 | inactive
prt (GeneID 117368) | 1 | 1.55e5 | 1.68e5 | 1.86e5 | 1.65e5 | 13995 | inactive
CG8026 (GeneID 35941) | 1 | 2.62e5 | 2.00e5 | 2.06e5 | 2.19e5 | 16380 | inactive
CG8026 (GeneID 35941) | 2 | 1.71e5 | 1.34e5 | 2.43e5 | 2.03e5 | 15395 | inactive
slo (GeneID 42940) | 1 | 63595 | 79395 | 65570 | 66275 | 7045 | inactive
AMPKalpha (GeneID 43904) | 1 | 1.93e5 | 1.50e5 | 1.96e5 | 2.49e5 | 12178 | inactive
Fntb (GeneID 41989) | 1 | 1.63e5 | 1.59e5 | 2.37e5 | 2.46e5 | 15865 | inactive
klhl10 (GeneID 3354863) | 1 | 2.14e5 | 2.38e5 | 3.07e5 | 3.34e5 | 23125 | inactive
klhl10 (GeneID 3354863) | 2 | 98110 | 87050 | 1.05e5 | 1.08e5 | 8030 | inactive
klhl10 (GeneID 3354863) | 3 | 1.06e5 | 98670 | 1.00e5 | 1.11e5 | 10925 | inactive
klhl10 (GeneID 3354863) | 4 | 1.21e5 | 94440 | 97235 | 1.15e5 | 10412 | inactive
grnd (GeneID 35103) | 1 | 1.78e5 | 1.77e5 | 1.87e5 | 1.87e5 | 17850 | inactive
